No constants are given. Whether binding was seen depends on the method and setting. In cells and extracts the contact can be indirect. Some binding calls cover weakened binding; strength is not graded here.
Target: Flag-tagged PKM2 (UniProt P14618)
Assay: co-IP; lysates of the indicated gastric cancer cells transfected with Flag-PKM2, incubated with anti-Flag agarose beads overnight at 4°C, five washes, Western blot for Parkin; MGC803 control or VAL-silenced; AGS after glucose starvation for 0, 1 and 2 h

Amino acid sequences for entries named in this document (tags omitted).
UniProt P14618: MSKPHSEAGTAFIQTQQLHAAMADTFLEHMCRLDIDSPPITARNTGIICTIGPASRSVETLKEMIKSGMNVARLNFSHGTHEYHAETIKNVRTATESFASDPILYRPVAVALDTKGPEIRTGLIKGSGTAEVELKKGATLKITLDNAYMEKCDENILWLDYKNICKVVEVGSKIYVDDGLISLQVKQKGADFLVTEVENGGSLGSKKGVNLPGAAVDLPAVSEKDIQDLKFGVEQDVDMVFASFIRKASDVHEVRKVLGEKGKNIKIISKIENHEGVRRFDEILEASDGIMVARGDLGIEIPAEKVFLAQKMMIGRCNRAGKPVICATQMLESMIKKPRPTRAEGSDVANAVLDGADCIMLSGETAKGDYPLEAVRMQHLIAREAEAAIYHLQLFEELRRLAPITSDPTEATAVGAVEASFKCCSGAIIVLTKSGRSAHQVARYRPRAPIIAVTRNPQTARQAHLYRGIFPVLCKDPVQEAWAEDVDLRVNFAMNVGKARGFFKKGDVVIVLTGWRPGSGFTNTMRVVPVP
UniProt O60260: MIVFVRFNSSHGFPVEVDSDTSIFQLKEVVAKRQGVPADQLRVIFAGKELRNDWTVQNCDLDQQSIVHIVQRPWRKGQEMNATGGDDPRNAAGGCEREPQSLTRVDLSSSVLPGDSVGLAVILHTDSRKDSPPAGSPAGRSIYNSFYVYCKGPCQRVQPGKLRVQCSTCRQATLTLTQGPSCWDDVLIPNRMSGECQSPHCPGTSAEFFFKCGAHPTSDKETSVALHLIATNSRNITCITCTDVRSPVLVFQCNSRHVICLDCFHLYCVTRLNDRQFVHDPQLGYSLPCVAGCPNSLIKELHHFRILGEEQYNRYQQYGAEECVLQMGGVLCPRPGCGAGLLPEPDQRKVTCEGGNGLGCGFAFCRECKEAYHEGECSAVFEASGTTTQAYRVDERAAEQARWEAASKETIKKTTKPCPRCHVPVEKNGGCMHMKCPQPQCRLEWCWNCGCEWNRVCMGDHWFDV

Parkin (from UniProt O60260 1-465) (enzyme)
binding: binds

Reference: paper PMC9561166
